Data published in PMC7069986.

Protein sequences, listed by entry. Tags and fused reporters are not part of them. Lines headed by an entry give the natural chain unless they say otherwise; changes in a name come on top.
UniProt Q9SA26: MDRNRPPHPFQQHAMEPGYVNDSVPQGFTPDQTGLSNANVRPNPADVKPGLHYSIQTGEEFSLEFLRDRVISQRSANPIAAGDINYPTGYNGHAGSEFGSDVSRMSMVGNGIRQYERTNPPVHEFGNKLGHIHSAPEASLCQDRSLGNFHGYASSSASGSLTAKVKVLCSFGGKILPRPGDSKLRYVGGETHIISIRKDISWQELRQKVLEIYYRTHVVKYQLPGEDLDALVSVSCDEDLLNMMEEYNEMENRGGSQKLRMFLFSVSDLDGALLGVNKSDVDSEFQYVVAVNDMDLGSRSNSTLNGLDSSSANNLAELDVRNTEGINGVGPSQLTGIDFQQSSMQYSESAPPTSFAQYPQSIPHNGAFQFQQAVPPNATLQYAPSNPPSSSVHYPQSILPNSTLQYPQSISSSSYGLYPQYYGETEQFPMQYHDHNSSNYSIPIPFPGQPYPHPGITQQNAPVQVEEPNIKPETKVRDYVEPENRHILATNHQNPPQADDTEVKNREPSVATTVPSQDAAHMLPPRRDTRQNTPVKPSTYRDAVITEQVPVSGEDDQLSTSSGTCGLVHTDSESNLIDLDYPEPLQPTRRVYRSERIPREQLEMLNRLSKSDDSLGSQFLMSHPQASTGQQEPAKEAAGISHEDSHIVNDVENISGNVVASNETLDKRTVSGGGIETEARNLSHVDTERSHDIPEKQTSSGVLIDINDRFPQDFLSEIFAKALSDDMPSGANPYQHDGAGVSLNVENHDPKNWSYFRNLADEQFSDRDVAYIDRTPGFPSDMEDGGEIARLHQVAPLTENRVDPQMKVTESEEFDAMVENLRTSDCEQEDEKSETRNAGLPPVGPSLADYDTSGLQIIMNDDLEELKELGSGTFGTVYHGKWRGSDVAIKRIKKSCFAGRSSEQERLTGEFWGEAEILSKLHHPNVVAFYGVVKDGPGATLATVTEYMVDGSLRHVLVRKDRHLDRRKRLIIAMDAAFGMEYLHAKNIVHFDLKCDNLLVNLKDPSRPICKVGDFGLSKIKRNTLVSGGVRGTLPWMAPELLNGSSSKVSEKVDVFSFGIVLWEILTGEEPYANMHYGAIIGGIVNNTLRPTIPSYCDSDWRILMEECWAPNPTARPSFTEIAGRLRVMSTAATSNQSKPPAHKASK

T1: Green fluorescent protein (GFP)-tagged SRK2G (Arabidopsis thaliana) (UniProt P43292)
T1 sequence: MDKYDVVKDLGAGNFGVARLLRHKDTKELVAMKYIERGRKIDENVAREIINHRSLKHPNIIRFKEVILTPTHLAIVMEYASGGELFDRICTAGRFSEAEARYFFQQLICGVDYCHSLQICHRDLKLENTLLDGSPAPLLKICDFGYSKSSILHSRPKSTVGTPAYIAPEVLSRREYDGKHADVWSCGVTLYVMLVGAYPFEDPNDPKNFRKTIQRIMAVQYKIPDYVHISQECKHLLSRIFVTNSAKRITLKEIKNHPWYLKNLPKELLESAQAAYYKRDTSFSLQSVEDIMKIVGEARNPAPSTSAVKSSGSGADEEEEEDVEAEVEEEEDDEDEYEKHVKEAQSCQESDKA

T2: Green fluorescent protein (GFP)-tagged SRK2A (Arabidopsis thaliana) (UniProt P43291)
T2 sequence: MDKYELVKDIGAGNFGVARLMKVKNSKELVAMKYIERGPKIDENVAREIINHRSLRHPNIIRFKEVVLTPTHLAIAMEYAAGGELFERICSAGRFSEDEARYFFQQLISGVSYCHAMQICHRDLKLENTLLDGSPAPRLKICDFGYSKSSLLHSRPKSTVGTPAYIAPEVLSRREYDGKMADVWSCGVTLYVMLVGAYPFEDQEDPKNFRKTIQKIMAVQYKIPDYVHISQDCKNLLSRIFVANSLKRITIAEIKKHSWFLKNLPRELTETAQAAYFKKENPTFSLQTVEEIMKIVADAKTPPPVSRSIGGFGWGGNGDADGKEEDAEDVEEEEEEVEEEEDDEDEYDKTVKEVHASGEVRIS

B1: RAF20 (B4 Raf-like MAPKKK), endogenous (protein, UniProt Q9SAJ2 1-1248)
chain: MDKARHQQLFQHSMEPGYRNETVPQPFMPDQTGSASANMRPPNSNGSDVKAVHNFSIQTGEEFSLEFMRDRVIPQRSSNPNGAGDMNYNTGYMELRGLIGISHTGSECASDVSRFSTVENGTSDIERTNSSLHEFGNKLNHVQSAPQALLSKDSSVGNLHGYKNTSSSASGSVTAKVKILCSFGGKILPRPGDSKLRYVGGETHIISIRKDISWQELRQKILEIYYQTRVVKYQLPGEDLDALVSVSSEEDLQNMLEEYNEMENRGGSQKLRMFLFSISDMDDALLGVNKNDGDSEFQYVVAVNGMDIGSGKNSTLLGLDSSSANNLAELDVRNTEGINTIAGDVVGVGASQLMVNGFQQTSAQQSESIPPSSSLHYSQSIPLNAAYQLQQSVPPSSALHYPQSITPGSSLQYPQSITPGSSYQYPQSIIPGSASSYGIYPQYYGHVVQHGERERFPLYPDHSSNYSAIGETTSSIPIQGHVSQQGGWAEGYPYPGSTPKSTQALAEEQKVSSDMKIREEVEPENRKTPGNDHQNPPQIDDVEVRNHNQVREMAVATTPPSQDAHLLPPSRDPRQNTTAKPATYRDAVITGQVPLSGIEDQLSTSSSTYAPVHSDSESNLIDLNYPEPEQSSQRVYCSERIPREQLELLNRLSKSDNSLSSQFVTSESPANTAQQDSGKEAVGKSHDEFKTVNDDANHHTHKDVETIFEKVGVSDETLESEPLHKIVNPDDANKNRVVNGADTEIGVSNLSHVNAAMSHVIPEEQASLQGDILIDINDRFPRDFLSEIFSQAISEDTSTVRPYPHDGAAVSMNVQNHDRKNWSYFQQLAEDQFIQRDVVLDQADSRIPSDRKDGGESSRLPYVSPLSRDGISTNLANPQLTLGQDYGGNFSEKDGGGTGSIPPALENEQMKVTESEEFGAMVENLRTPDSEPKDEKTETRHAALPPLGSEFDYSGLQIIKNEDLEELRELGSGTFGTVYHGKWRGSDVAIKRIKKSCFAGRSSEQERLTGEFWGEAEILSKLHHPNVVAFYGVVKDGPGGTLATVTEYMVDGSLRHVLVRKDRHLDRRKRLIIAMDAAFGMEYLHSKNTVHFDLKCDNLLVNLKDPSRPICKVGDFGLSKIKRNTLVSGGVRGTLPWMAPELLNGSSSKVSEKVDVFSFGIVLWEILTGEEPYANMHYGAIIGGIVNNTLRPTIPGFCDDEWRTLMEECWAPNPMARPSFTEIAGRLRVMSSAATSTQSKPSAHRASK
B2: RAF24 (B4 Raf-like MAPKKK), endogenous (protein, UniProt O64768 1-1257)
chain: MDQAKGYEHVRYTAPDPRDEGLGSINQRFSHDSSTNVNTYVRPPDYGVSTPARPVLNYSIQTGEEFAFEFMRDRVIMKPQFIPNVYGEHSGMPVSVNLSALGMVHPMSESGPNATVLNIEEKRQSFEHERKPPSRIEDKTYHELVQSAPVISSKNDTGQRRHSLVSSRASDSSLNRAKFLCSFGGKVIPRPRDQKLRYVGGETRIIRISKTISFQELMHKMKEIFPEARTIKYQLPGEDLDALVSVSSDEDLQNMMEECIVFGNGGSEKPRMFLFSSSDIEEAQFVMEHAEGDSEVQYVVAVNGMDLSSRRSSLGLSPPGNNLDELLHGNFDRKIDRAATEPAVASLTPLAGNESLPASQTSQPVTGFSTGNEPFSQPYLGQQLQFPGLGNHQIYTSGHMASIGYIDEKRSAPLHVQPQPHYIPYSVNPETPLESLVPHYPQKPEQGFLREEQIFHVQDPETSSKEAKMRRDDSFQKVNDHPISTVESNLSAKEPKMRRESSTPRVNEYPVSSMPSDLIVPDDLPKEEAPIVTQTSSSTPDPSSSTLSEKSLRKSEDHVENNLSAKEPKMRKEHSTTRVNEYSVSSVSSDSMVPDQALKEEAPISMKISNSTPDPKSLVYPEKSLRTSQEKTGAFDTTNEGMKKNQDNQFCLLGGFSVSGHGTSNNSSSNVSNFDQPVTQQRVFHSERTVRDPTETNRLSKSDDSLASQFVMAQTTSDAFLPISESSETSHEANMESQNVHPTAPVIPAPDSIWTAEGSMSQSEKKNVETNTPEHVSQTETSAKAVPQGHNEKGDIVVDINDRFPREFLADILKTKESLNFPGLGPLHADGAGVSLNIQNNDPKTWSYFRNLAQDEFERKDLSLMDQDHPGFPTSMTNTNGVPIDYSYPPLQSEKVASSQIHPQIHFDGNIKPDVSTITIPDLNTVDTQEDYSQSQIKGAESTDATLNAGVPLIDFMAADSGMRSLQVIKNDDLEELKELGSGTFGTVYHGKWRGTDVAIKRIKRSCFIGRSSEQERLTSEFWHEAEILSKLHHPNVMAFYGVVKDGPGGTLATVTEYMVNGSLRHVLLSNRHLDRRKRLIIAMDAAFGMEYLHSKSIVHFDLKCDNLLVNLKDPARPICKVGDFGLSKIKRNTLVTGGVRGTLPWMAPELLSGSSSKVSEKVDVFSFGIVLWEILTGEEPYANMHYGAIIGGIVNNTLRPTVPNYCDPEWRMLMEQCWAPDPFVRPAFPEIARRLRTMSSSAVHTKPHAVNHQIHK

What was measured:
[1] = target: T1, Green fluorescent protein (GFP)-tagged SRK2G (Arabidopsis thaliana); test: affinity purification with mass spectrometry; SRK2A-GFP or SRK2G-GFP immunoprecipitated with anti-GFP MicroBeads from extracts of transgenic Arabidopsis plants treated with 800 mM mannitol for 10 min; LC-MS/MS; proteins detected in GFP-expressing plants excluded; two biological replicates
[2] = target: T2, Green fluorescent protein (GFP)-tagged SRK2A (Arabidopsis thaliana); test: as above

| Molecule | binding [1] | binding [2] |
| --- | --- | --- |
| RAF18 (B4 Raf-like MAPKKK), endogenous (from UniProt Q9SA26) | binds | binds |
| B1 | binds | binds |
| B2 | binds | binds |

No constants are given. Whether binding was seen depends on the method and setting. In cells and extracts the contact can be indirect. These calls come from enrichment with a bait or labelling near it, and not all partners need be listed. Tags and fused reporters may be left off the sequences shown.
